Measured values reported in article PMC12412103, “An Amyloidogenic Fragment of the Spike Protein from SARS-CoV‑2 Virus Stimulates the Aggregation and Toxicity of Parkinson’s Disease Protein Alpha-Synuclein” (ACS Chemical Neuroscience, 2025).

The chains behind the UniProt entries cited, without tags or fusion partners. Where a name states a change or a piece, a line headed by the entry shows the natural chain unless it says otherwise.
UniProt P05067: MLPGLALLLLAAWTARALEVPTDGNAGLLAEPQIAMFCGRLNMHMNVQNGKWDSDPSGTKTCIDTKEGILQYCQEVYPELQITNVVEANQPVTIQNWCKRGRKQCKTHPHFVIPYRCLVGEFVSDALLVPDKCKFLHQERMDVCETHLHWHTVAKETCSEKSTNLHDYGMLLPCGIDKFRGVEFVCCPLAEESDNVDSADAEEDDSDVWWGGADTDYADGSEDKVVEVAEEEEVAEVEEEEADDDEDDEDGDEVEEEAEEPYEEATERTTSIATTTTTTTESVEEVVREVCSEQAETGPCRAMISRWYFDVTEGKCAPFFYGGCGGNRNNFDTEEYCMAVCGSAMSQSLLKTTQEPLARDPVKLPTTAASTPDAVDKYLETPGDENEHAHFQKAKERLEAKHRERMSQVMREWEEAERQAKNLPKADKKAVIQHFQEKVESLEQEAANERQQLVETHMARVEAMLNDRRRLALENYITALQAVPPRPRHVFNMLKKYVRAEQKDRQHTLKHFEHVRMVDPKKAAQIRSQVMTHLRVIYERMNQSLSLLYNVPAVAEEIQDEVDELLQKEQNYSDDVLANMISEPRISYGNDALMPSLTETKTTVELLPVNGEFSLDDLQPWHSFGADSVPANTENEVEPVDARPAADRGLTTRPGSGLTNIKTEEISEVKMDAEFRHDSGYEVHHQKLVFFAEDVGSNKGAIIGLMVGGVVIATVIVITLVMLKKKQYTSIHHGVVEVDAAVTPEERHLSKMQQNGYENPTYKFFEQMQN

Assay: Transmission electron microscopy (TEM) of aggregates
Settings: end of the incubation time

Substance | aggregate morphology by TEM
fAβ1–42 | tiny and short fibrillar aggregates, as well as a minor population of amorphous aggregates
fAβ25–35 (GSNKGAIIGLM; Amyloid-beta protein 42 fibrillar; UniProt P05067 696-706, looked up, fragment) | highly heterogeneous branched aggregates
